In the supplement of paper PMC10849652:
Some of the results follow. Residues, ends and D or L forms follow the SMILES beside them. *: point of attachment. Cbz = O=C(OCc1ccccc1)*

Amino acid sequences for entries named in this document (tags omitted). A change or cut given only in a name is not applied to a line headed by its entry.
UniProt Q99460, whole entry, looked up: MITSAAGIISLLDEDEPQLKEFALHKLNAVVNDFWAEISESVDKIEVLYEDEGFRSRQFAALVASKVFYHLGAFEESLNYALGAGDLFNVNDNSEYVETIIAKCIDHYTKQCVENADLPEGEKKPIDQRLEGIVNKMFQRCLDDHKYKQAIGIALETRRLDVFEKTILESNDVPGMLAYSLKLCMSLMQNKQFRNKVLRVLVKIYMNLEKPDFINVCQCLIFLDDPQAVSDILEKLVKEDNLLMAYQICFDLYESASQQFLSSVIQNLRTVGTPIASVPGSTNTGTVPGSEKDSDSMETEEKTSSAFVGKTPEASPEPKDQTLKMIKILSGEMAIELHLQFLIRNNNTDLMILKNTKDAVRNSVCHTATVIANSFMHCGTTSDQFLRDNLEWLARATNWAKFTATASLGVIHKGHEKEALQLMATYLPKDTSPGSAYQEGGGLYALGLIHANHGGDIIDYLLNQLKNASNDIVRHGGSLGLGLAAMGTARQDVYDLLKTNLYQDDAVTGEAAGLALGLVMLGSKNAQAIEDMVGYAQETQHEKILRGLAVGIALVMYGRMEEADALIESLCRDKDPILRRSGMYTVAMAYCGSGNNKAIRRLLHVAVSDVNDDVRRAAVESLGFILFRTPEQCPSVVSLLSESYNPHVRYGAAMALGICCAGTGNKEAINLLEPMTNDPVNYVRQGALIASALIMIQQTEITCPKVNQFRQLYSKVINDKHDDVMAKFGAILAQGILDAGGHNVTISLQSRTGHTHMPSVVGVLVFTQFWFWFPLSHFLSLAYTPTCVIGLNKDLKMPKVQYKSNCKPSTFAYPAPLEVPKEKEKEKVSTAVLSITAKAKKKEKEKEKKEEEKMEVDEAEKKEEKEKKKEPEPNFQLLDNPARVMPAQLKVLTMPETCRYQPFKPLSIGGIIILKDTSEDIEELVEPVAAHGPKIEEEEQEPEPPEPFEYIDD
UniProt Q8WXF1: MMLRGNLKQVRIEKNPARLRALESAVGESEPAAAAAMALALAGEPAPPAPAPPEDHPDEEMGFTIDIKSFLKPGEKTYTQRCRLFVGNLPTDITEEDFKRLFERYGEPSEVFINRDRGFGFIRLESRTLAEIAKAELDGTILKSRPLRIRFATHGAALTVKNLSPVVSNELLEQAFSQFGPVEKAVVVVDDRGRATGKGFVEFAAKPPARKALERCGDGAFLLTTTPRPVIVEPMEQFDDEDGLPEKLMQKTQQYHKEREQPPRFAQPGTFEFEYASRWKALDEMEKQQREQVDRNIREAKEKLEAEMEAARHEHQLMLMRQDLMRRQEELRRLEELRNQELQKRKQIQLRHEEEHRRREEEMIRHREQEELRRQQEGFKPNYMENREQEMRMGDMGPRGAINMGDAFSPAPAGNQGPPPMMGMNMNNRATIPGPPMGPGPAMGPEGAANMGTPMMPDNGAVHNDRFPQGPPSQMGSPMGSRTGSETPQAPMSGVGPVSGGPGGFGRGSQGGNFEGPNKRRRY
UniProt P35998: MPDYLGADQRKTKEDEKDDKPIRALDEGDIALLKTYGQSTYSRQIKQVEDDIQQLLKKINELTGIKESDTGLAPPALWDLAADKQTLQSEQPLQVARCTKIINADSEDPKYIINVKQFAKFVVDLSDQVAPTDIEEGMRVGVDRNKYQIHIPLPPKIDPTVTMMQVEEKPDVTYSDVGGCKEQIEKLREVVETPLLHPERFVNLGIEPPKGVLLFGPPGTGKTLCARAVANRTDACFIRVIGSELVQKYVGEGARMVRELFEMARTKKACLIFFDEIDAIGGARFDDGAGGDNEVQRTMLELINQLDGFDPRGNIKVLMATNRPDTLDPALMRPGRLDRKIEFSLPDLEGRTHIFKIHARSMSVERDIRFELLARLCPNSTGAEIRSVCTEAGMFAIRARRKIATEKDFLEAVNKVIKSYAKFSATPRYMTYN
UniProt O00233: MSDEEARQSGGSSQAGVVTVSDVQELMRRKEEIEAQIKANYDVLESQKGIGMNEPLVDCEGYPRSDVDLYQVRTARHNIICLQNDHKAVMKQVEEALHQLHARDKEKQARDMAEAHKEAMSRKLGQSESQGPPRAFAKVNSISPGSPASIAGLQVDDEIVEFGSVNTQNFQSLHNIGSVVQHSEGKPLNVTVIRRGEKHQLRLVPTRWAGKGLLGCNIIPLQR
UniProt Q86TP1: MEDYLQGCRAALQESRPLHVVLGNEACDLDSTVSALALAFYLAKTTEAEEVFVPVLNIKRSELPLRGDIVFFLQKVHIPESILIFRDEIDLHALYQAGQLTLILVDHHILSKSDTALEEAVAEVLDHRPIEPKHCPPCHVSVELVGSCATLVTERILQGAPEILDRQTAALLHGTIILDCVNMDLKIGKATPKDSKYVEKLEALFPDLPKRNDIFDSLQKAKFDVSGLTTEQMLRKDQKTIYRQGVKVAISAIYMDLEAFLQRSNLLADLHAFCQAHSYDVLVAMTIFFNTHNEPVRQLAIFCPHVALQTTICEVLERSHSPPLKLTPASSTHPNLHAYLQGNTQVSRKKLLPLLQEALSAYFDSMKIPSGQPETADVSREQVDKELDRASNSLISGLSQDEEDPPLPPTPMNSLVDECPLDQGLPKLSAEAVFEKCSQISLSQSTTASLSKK
UniProt P17706: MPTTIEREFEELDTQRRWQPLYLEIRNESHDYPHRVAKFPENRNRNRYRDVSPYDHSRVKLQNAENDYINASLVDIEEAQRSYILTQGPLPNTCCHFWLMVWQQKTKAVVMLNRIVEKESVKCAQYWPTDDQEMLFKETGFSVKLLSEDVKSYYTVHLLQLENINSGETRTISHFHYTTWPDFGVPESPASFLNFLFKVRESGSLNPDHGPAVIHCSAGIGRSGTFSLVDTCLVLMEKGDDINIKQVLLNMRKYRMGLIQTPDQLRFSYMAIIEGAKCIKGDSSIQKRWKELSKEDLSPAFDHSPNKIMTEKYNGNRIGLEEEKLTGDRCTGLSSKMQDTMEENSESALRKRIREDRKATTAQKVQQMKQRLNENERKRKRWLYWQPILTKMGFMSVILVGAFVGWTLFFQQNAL
UniProt Q15008: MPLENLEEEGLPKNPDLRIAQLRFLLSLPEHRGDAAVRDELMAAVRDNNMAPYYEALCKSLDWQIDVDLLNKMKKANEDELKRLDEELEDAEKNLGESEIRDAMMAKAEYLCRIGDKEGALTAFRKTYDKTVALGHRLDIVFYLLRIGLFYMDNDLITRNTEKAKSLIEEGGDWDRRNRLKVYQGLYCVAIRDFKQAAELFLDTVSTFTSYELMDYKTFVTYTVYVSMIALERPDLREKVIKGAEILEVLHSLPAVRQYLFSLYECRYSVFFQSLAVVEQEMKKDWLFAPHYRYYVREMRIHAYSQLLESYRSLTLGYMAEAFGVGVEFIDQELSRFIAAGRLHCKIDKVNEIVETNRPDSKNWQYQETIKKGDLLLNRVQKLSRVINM
UniProt P25787: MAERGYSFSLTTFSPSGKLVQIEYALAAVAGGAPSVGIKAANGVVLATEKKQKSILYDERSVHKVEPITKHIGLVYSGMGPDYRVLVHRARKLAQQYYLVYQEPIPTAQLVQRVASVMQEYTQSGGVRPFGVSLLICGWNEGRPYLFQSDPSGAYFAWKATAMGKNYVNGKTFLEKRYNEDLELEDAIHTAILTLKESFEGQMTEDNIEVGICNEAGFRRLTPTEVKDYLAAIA
UniProt P23219, whole entry, looked up: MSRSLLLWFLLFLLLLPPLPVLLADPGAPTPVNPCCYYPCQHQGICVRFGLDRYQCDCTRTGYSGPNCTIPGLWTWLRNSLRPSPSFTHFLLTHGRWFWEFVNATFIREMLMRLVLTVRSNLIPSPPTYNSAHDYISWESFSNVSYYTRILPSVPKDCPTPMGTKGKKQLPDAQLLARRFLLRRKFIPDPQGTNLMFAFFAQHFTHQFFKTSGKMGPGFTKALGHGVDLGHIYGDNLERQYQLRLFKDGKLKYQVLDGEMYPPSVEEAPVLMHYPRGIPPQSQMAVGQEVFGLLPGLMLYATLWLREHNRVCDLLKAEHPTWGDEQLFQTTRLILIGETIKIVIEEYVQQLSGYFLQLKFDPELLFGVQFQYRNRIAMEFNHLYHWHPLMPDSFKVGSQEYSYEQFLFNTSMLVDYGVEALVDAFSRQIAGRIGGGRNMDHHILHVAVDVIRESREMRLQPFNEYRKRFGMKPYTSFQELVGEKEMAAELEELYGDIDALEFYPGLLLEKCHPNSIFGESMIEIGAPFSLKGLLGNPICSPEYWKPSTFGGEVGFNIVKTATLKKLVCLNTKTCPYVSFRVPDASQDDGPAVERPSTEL
UniProt O43242, whole entry, looked up: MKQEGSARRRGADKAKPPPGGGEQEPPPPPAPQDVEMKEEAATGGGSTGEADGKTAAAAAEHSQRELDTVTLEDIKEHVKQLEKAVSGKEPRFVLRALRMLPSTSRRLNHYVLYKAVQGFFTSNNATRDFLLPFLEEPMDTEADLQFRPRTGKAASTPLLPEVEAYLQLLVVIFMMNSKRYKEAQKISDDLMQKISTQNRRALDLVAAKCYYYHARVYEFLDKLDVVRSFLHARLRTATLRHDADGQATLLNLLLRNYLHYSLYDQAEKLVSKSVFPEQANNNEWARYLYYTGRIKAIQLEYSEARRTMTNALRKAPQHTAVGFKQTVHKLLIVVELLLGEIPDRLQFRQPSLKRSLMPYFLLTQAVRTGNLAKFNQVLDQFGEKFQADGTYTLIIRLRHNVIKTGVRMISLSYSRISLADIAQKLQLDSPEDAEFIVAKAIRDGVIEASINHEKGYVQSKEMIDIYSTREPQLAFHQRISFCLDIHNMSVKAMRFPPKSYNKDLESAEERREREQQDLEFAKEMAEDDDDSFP
UniProt P25788: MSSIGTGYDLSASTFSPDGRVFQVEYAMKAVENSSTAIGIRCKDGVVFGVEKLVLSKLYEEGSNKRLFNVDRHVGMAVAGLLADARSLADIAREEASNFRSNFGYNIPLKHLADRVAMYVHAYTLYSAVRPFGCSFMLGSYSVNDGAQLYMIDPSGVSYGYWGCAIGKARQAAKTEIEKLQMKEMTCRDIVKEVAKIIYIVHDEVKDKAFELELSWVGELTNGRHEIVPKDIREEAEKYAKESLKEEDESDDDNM
UniProt P11216: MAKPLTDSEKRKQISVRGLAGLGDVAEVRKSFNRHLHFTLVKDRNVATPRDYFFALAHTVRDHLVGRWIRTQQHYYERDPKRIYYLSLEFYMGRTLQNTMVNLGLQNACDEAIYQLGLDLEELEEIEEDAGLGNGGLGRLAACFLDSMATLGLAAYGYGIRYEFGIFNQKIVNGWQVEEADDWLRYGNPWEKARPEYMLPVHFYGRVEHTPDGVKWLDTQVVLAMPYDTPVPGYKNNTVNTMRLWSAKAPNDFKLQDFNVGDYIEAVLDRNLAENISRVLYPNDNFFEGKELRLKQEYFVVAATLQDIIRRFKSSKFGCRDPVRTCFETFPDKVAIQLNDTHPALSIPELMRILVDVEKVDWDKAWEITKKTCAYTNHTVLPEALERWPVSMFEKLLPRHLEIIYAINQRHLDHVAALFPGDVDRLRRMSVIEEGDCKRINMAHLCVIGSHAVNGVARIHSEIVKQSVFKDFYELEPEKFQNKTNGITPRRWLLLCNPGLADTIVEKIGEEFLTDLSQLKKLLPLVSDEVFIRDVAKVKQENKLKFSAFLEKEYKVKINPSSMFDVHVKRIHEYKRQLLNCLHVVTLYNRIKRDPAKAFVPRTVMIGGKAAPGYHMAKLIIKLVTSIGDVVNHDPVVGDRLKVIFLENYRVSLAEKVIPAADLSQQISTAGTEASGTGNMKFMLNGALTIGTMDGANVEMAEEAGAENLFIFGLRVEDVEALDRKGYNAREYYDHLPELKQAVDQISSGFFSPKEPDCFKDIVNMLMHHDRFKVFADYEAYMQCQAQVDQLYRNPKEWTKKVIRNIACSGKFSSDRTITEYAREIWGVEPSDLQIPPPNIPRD
UniProt P48556: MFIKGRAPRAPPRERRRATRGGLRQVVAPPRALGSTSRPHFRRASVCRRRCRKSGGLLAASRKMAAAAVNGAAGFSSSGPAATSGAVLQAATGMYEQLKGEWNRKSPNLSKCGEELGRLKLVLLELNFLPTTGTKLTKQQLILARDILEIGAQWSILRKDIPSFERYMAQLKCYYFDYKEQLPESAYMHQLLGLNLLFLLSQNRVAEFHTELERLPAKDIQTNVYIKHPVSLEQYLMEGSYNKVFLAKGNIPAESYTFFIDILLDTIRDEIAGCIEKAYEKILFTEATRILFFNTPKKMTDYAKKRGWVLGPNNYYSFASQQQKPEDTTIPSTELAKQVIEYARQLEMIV
UniProt Q12974: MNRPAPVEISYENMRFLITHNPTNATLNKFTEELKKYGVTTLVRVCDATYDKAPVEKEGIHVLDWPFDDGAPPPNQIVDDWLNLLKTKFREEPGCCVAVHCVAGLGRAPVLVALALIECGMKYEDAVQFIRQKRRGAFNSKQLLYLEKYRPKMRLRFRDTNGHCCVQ

How the values were obtained:
Assay in all cases: log2 fold change, soluble protein after heating vs DMSO (PISA); higher = thermal stabilisation; K562 cells, 10 uM, 30 min; active = over 0.2 and 3.5 SD of the protein, either way, in both replicates (recomputed)
erlotinib = compound: C#Cc1cccc(Nc2ncnc3cc(OCCOC)c(OCCOC)cc23)c1 [erlotinib]
How it was run: (§1)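 Values are thermal stability changes relative to control samples and are taken from duplicates. They are stated as log2 fold changes. Before quantification by TMTpro 16plex LC-MS/MS with equalised channel sums, K562 cells at 2×10^6 cells/mL were treated with 10 μM compound for 30 min, heated in aliquots for 3 min across 48°C-58°C, pooled, extracted in PBS with 0.5% NP-40 at 4°C, and centrifuged at 21,000xg for 90 min to give the soluble supernatant.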

[1] = compound: C/C(=N\NC(=O)C1=CC(=CC=C1)S(=O)(=O)N2CCOCC2)/C3=C(C=CC(=C3)Cl)O
How it was run: as §1

[2] = compound: C1=CC(=C(C=C1Cl)C2=NC3=NC=CN=C3C(=N2)NC4=CC=NC=C4)F
How it was run: as §1

[3] = compound: C1=CC(=CC=C1C2=NC3=C(N2)C=C(C=C3)C(=O)N)OC4=CC=C(C=C4)Cl
How it was run: as §1

[4] = compound: C1=CC2=C(C=CC(=C2)/C=C\3/C(=O)NC(=NCC4=CC=CS4)S3)N=C1
How it was run: as §1

[5] = compound: C1=CC2=NC=CN=C2C=C1/C=C/3\C(=O)NC(=O)S3
How it was run: as §1

[6] = compound: C1=CC=C(C=C1)C2=NC(=C(N2)C3=CC=NC=C3)C4=CC(=C(C=C4)Cl)O
How it was run: as §1

[7] = compound: C1=CC=C2C(=C1)C3=NNC4=CC=CC(=C43)C2=O
How it was run: as §1

[8] = compound: C1CCN(C1)C(=O)NC2=CC=CC(=C2)NC3=NC=C(C(=N3)NCCC4=CN=CN4)Br
How it was run: as §1

[9] = compound: C1CN(CCC1(CC2=CC=C(C=C2)Cl)N)C3=NC=NC4=C3C=CN4
How it was run: as §1

IRAK-1-4 Inhibitor I = compound: C1COCCN1CCN2C3=CC=CC=C3N=C2NC(=O)C4=CC(=CC=C4)[N+](=O)[O-] [IRAK-1-4 Inhibitor I]
How it was run: as §1

ibrutinib = compound: C=CC(=O)N1CCC[C@@H](n2nc(-c3ccc(Oc4ccccc4)cc3)c3c(N)ncnc32)C1 [ibrutinib]
How it was run: as §1

[10] = compound: CC(=O)c1cnc2ccc(-c3cc(Cl)c(O)c(Cl)c3)nc2c1N[C@H]1CC[C@H](CN(C)C)CC1
How it was run: as §1

ralimetinib = compound: CC(C)(C)Cn1c(N)nc2ccc(-c3[nH]c(C(C)(C)C)nc3-c3ccc(F)cc3)nc21 [ralimetinib]
How it was run: as §1

[11] = compound: CC(C)(O)CC(=O)NCCn1ccc2ncnc(Nc3ccc(Oc4cccc(C(F)(F)F)c4)c(Cl)c3)c21
How it was run: as §1

[12] = compound: CC(C)C1=C2N=C(C=C(N2N=C1)NCC3=CC=CC=C3)NCCCCCCN
How it was run: as §1

[13] = compound: CC(C)C[C@@H](C=O)NC(=O)[C@H](CC(C)C)NC(=O)[C@H](CC(C)C)NC(=O)OCc1ccccc1
How it was run: as §1

pinometostat = compound: CC(C)N(C[C@H]1O[C@@H](n2cnc3c(N)ncnc32)[C@H](O)[C@@H]1O)[C@H]1C[C@@H](CCc2nc3cc(C(C)(C)C)ccc3[nH]2)C1 [pinometostat]
How it was run: as §1

[14] = compound: CC1=C(C2=C(C=C1)C(=O)C3=CC=CC=C3N2CCCN)C
How it was run: as §1

[15] = compound: CC1=C(C(CC(=O)N1)C2=CC=C(C=C2)C(F)(F)F)C(=O)NC3=C(C=C4C(=C3)C=NN4)F
How it was run: as §1

Target	log2 fold change (erlotinib)	log2 fold change [1]	log2 fold change [2]	log2 fold change [3]	log2 fold change [4]	log2 fold change [5]	log2 fold change [6]	log2 fold change [7]	log2 fold change [8]	log2 fold change [9]	log2 fold change (IRAK-1-4 Inhibitor I)	log2 fold change (ibrutinib)	log2 fold change [10]	log2 fold change (ralimetinib)	log2 fold change [11]	log2 fold change [12]	log2 fold change [13]	log2 fold change (pinometostat)	log2 fold change [14]	log2 fold change [15]
PTPN12 (UniProt Q05209)	inactive: 0.005	inactive: -0.007	inactive: -0.011	inactive: 0.004	inactive: 0.022	inactive: 0.101	inactive: -0.021	inactive: -0.036	inactive: -0.039	inactive: -0.05	inactive: -0.011	inactive: -0.008	active: 0.264	inactive: 0.004	inactive: 0.039	inactive: -0.101	inactive: 0.057	inactive: 0.045	inactive: 0.004	
PSMD1 (UniProt Q99460)	inactive: -0.08	inactive: -0.074	inactive: 0.028	inactive: 0.021	inactive: -0.061	inactive: -0.018	inactive: 0.062	inactive: 0.034	inactive: 0.001	inactive: -0.025	inactive: -0.037	inactive: -0.022	inactive: 0.03	inactive: 0.061	inactive: 0.009	inactive: 0.054	active: -0.254	inactive: 0.023	inactive: -0.004	
PTDSS1 (UniProt P48651)	inactive: -0.076	inactive: -0.12	inactive: -0.099	inactive: 0.045	inactive: -0.031	inactive: -0.114	inactive: 0.03	inactive: 0.041	inactive: 0.016	inactive: -0.058	inactive: -0.146	inactive: 0.118	inactive: 0.021	inactive: 0.029	inactive: -0.023	active: -0.585	inactive: 0.061	inactive: 0.212	inactive: 0.035	
PSPC1 (UniProt Q8WXF1)	inactive: -0.024	inactive: 0.014	inactive: -0.036	inactive: 0.043	inactive: -0.008	inactive: 0.004	inactive: -0.101	inactive: -0.141	inactive: -0.033	inactive: -0.061	inactive: -0.097	inactive: 0.002	inactive: -0.201	inactive: -0.012	inactive: -0.024	inactive: -0.18	inactive: 0.048	inactive: -0.02	inactive: 0.15	
PSMC2 (UniProt P35998)	inactive: -0.05	inactive: -0.054	inactive: -0.057	inactive: 0.008	inactive: -0.001	inactive: -0.03	inactive: 0.019	inactive: 0.02	inactive: -0.007	inactive: -0.031	inactive: -0.024	inactive: -0.009	inactive: 0.079	inactive: 0.046	inactive: 0.011	inactive: 0.053	inactive: -0.183	inactive: 0.033	inactive: -0.039	
PSMD9 (UniProt O00233)	inactive: 0.015	inactive: 0.015	inactive: 0.022	inactive: -0.012	inactive: -0.068	inactive: 0.041	inactive: 0.006	inactive: 0.008	inactive: 0.009	inactive: 0.03	inactive: 0.033	inactive: -0.005	inactive: -0.003	inactive: -0.029	inactive: 0.003	inactive: 0.069	inactive: -0.015	inactive: -0.039	inactive: -0.004	
PRUNE1 (UniProt Q86TP1)	inactive: 0.002	inactive: 0.063	inactive: 0.062	inactive: 0.03	inactive: -0.034	inactive: -0.016	inactive: 0.051	inactive: 0.045	inactive: -0.079	inactive: -0.005	inactive: 0.049	inactive: -0.058	inactive: 0.012	inactive: 0.017	inactive: -0.037	inactive: -0.129	inactive: 0.04	inactive: 0.08	inactive: -0.021	
PTPN2 (UniProt P17706)	inactive: 0.042	inactive: 0.113	inactive: -0.014	inactive: -0.02	inactive: 0	inactive: -0.024	inactive: -0.024	inactive: 0.017	inactive: -0.084	inactive: -0.082	inactive: -0.151	inactive: -0.07	inactive: -0.127	inactive: 0.013	inactive: 0.006	inactive: 0.034	inactive: 0.046	inactive: -0.044	inactive: 0.062	
PSMD6 (UniProt Q15008)	inactive: -0.024	inactive: -0.041	inactive: -0.042	inactive: 0.017	inactive: -0.056	inactive: -0.007	inactive: 0.09	inactive: 0.053	inactive: 0.002	inactive: 0.016	inactive: -0.037	inactive: -0.036	inactive: 0.081	inactive: 0.087	inactive: 0.05	inactive: 0.038	active: -0.221	inactive: 0.047	inactive: 0.012	
PUM1 isoform 3 (UniProt Q14671)	inactive: -0.023	inactive: 0	inactive: 0.04	inactive: 0.034	inactive: 0.047	inactive: 0.003	inactive: -0.013	inactive: 0.003	inactive: -0.057	inactive: 0.028	inactive: 0.004	inactive: 0.02	inactive: -0.097	inactive: 0.013	inactive: -0.022	inactive: -0.059	inactive: 0.02	inactive: 0.023	inactive: 0.063	
PSMA2 (UniProt P25787)	inactive: -0.067	inactive: -0.086	inactive: 0.021	inactive: 0.02	inactive: -0.104	inactive: -0.025	inactive: 0.047	inactive: -0.018	inactive: -0.022	inactive: 0.015	inactive: 0.012	inactive: 0.008	inactive: 0.021	inactive: 0.02	inactive: 0.024	inactive: 0.102	inactive: -0.074	inactive: -0.011	inactive: -0.013	inactive: 0.001
PTGS1 isoform 6 (UniProt P23219)	inactive: 0.02	inactive: -0.047	inactive: 0.022	inactive: 0.011	inactive: 0.015	inactive: 0.034	inactive: 0.008	inactive: 0.019	inactive: -0.008	inactive: 0.033	inactive: 0.009	inactive: -0.012	inactive: 0.018	inactive: -0.036	inactive: 0.006	inactive: 0.035	inactive: 0.019	inactive: 0.04	inactive: 0.012	inactive: -0.011
PSMD3 (UniProt O43242)	inactive: -0.074	inactive: -0.05	inactive: -0.072	inactive: 0.002	inactive: -0.022	inactive: -0.028	inactive: 0.008	inactive: 0.033	inactive: -0.012	inactive: -0.066	inactive: -0.025	inactive: -0.031	inactive: 0.044	inactive: 0.023	inactive: -0.033	inactive: 0.01	active: -0.22	inactive: 0.067	inactive: 0.039	
PSMA3 (UniProt P25788)	inactive: -0.052	inactive: -0.075	inactive: 0.016	inactive: 0.028	inactive: -0.073	inactive: -0.025	inactive: -0.023	inactive: 0.002	inactive: -0.008	inactive: 0.044	inactive: -0.027	inactive: -0.013	inactive: 0.008	inactive: 0.037	inactive: 0.071	inactive: 0.102	inactive: -0.065	inactive: -0.033	inactive: -0.014	
PYGB (UniProt P11216)	inactive: -0.047	inactive: -0.022	inactive: -0.003	inactive: 0.087	inactive: 0.11	inactive: 0.008	inactive: -0.011	inactive: 0.039	inactive: 0.009	inactive: -0.028	inactive: -0.029	inactive: 0.037	active: -0.246	inactive: -0.025	inactive: 0.025	inactive: 0.01	inactive: 0.005	inactive: 0.011	inactive: 0.087	
PSMD8 (UniProt P48556)	inactive: -0.045	inactive: -0.096	inactive: -0.046	inactive: 0.023	inactive: -0.027	inactive: -0.031	inactive: 0.036	inactive: 0.039	inactive: 0.055	inactive: -0.031	inactive: -0.058	inactive: -0.033	inactive: 0.076	inactive: -0.012	inactive: 0.022	inactive: 0.016	inactive: -0.194	inactive: 0.031	inactive: -0.014	
PTP4A2 (UniProt Q12974)	inactive: -0.054	inactive: 0.03	inactive: 0.134	inactive: 0.049	inactive: 0.018	inactive: -0.051	inactive: 0.205	inactive: -0.125	inactive: -0.029	inactive: -0.097	inactive: 0.019	inactive: 0.16	inactive: 0.065	inactive: 0.051	inactive: -0.051	inactive: 0.035	inactive: -0.157	inactive: -0.044	inactive: -0.164	

2 entries from above in another layout.

| Target | log2 fold change (erlotinib) | log2 fold change [1] | log2 fold change [2] | log2 fold change [3] | log2 fold change [4] | log2 fold change [5] | log2 fold change [6] | log2 fold change [7] | log2 fold change [8] | log2 fold change [9] | log2 fold change (IRAK-1-4 Inhibitor I) | log2 fold change (ibrutinib) | log2 fold change [10] | log2 fold change (ralimetinib) | log2 fold change [11] | log2 fold change [12] | log2 fold change [13] | log2 fold change (pinometostat) | log2 fold change [14] | log2 fold change [15] |
| --- | --- | --- | --- | --- | --- | --- | --- | --- | --- | --- | --- | --- | --- | --- | --- | --- | --- | --- | --- | --- |
| PSMD9 (UniProt O00233) | inactive: 0.015 | inactive: 0.015 | inactive: 0.022 | inactive: -0.012 | inactive: -0.068 | inactive: 0.041 | inactive: 0.006 | inactive: 0.008 | inactive: 0.009 | inactive: 0.03 | inactive: 0.033 | inactive: -0.005 | inactive: -0.003 | inactive: -0.029 | inactive: 0.003 | inactive: 0.069 | inactive: -0.015 | inactive: -0.039 | inactive: -0.004 |  |
| PRUNE1 (UniProt Q86TP1) | inactive: 0.002 | inactive: 0.063 | inactive: 0.062 | inactive: 0.03 | inactive: -0.034 | inactive: -0.016 | inactive: 0.051 | inactive: 0.045 | inactive: -0.079 | inactive: -0.005 | inactive: 0.049 | inactive: -0.058 | inactive: 0.012 | inactive: 0.017 | inactive: -0.037 | inactive: -0.129 | inactive: 0.04 | inactive: 0.08 | inactive: -0.021 |  |
